In patent US7968573B2, “Hydrazide compound and pesticidal use of the same” (Sumitomo Chemical Company, Limited, priority 2008, dated 2011):
Some entries share one result that the patent states for a list of compounds.

How the values were obtained:
diamondback moths = assay: Test Example 1: spray on cabbage, third-instar larvae of diamondback moths; assay type: in vivo, Plutella xylostella; settings: 500 ppm spray solution, 20 ml/cup on cabbage; 10 third-instar larvae of diamondback moths; counted after 5 days
cotton aphids = assay: Test Example 2: spray on cucumber infested with cotton aphids; assay type: in vivo, Aphis gossypii; settings: 500 ppm spray solution, 20 ml/cup on cucumber with about 30 cotton aphids; counted six days after spraying
Description: At the same time, cucumber was planted in a polyethylene cup, and was grown until the first true leaf was developed. About 30 cotton aphids were put on the cucumber. One day after, the test spray solution as described above was sprayed in an amount of 20 ml/cup on the cucumber. Six days after spraying, the number of cotton aphids was counted, and a controlling value was calculated by the following equation: Controlling value(%)={1−(Cb×Tai)/(Cai×Tb)}×100 wherein, Cb: the number of insects in a non-treated section before treatment Cai: the number of insects in a non-treated section on observation Tb: the number of insects in a treated-section before treatment Tai: the number of insects in a treated-section on observation. Furthermore, the same way as Test Example 2, test spray solution of the comparative compound of the formula: […]

[1] = tested on: Adoxophyes orana fasciata; assay: Test Example 4: spray on apple seedling, first-instar larvae of Adoxophyes orana fasciata; assay type: in vivo; settings: 500 ppm spray solution, 20 ml on apple seedling; about 30 first-instar larvae of Adoxophyes orana fasciata; counted seven days after spraying
Spodoptera litura = assay: Test Example 3: spray on cabbage, fourth-instar larvae of Spodoptera litura; assay type: in vivo; settings: 500 ppm spray solution, 20 ml/cup on cabbage; 10 fourth-instar larvae of Spodoptera litura; counted after 4 days

SMILES | Controlling value (diamondback moths) | Controlling value (cotton aphids) | Controlling value [1] | Controlling value (Spodoptera litura)
CCOC(=O)NNC(=O)c1ccccc1NC(=O)c1cc(C(F)(F)F)nn1-c1ncccc1Cl [(1)] | ≥ 80% |  |  | 
CC(=O)NNC(=O)c1cc(Cl)cc(C)c1NC(=O)c1cc(C(F)(F)F)nn1-c1ncccc1Cl [(27)] |  | ≥ 90% |  | 
CSC(=O)NNC(=O)c1cc(Cl)cc(C)c1NC(=O)c1cc(C(F)(F)F)nn1-c1ncccc1Cl [(29)] |  | ≥ 90% |  | 
COC(=O)NNC(=O)c1cc(C)ccc1NC(=O)c1cc(C(F)(F)F)nn1-c1ncccc1Cl [(53)] |  |  | ≥ 90% | 
CN(C)C(=O)NNC(=O)c1cc(I)cc(I)c1NC(=O)c1cc(C(F)(F)F)nn1-c1ncccc1Cl [(61)] |  |  |  | ≥ 80%
COC(=O)NNC(=O)c1cc(Br)cc(C)c1NC(=O)c1cc(C(F)(F)F)nn1-c1ncccc1Cl [(74)] |  |  | ≥ 90% | 
CCn1nc(C(F)(F)F)cc1C(=O)Nc1c(C)cc(Cl)cc1C(=O)NNC(=O)OC [(83)] |  |  | ≥ 90% | 
COC(=O)NNC(=O)c1cc(Cl)cc(C)c1NC(=O)c1cc(S(C)(=O)=O)nn1-c1ncccc1Cl [(100)] |  |  |  | ≥ 80%
COC(=O)NNC(=O)c1cc(Cl)cc(C)c1NC(=O)c1cc(C)nn1-c1ncccc1Cl [(102)] |  |  |  | ≥ 80%
Cc1cc(Cl)cc(C(=O)NNC=O)c1NC(=O)c1cc(Cl)c(Cl)n1-c1ncccc1Cl [(164)] |  | ≥ 90% |  | 
COC(=O)NNC(=O)c1cc(Cl)cc(C)c1NC(=O)c1cc(I)cn1-c1ncccc1Cl [(171)] |  |  | ≥ 90% | 
COC(=O)NNC(=O)c1cc2ccccc2c(Cl)c1NC(=O)c1cc(Cl)c(Cl)n1-c1ncccc1Cl [(173)] | ≥ 80% |  | ≥ 90% | ≥ 80%
COC(=O)NN(C)C(=O)c1cc(Cl)cc(Br)c1NC(=O)c1cc(Br)cn1-c1ncccc1Cl [(178)] | ≥ 80% |  | ≥ 90% | ≥ 80%
COC(=O)NNC(=O)c1cc(Cl)cc(C)c1NC(=O)c1cc(Cl)c(Cl)n1-c1ccccn1 [(191)] |  | ≥ 90% |  | 
COC(=O)N(C)N(C)C(=O)c1cc(Cl)cc(Cl)c1NC(=O)c1cc(Br)nn1-c1ncccc1Cl [(231)] | ≥ 80% | ≥ 90% | ≥ 90% | ≥ 80%
